Data from patent US20260265832A1, “ADAR1 INHIBITORS FOR TREATING CANCER” (INSTITUE OF CANCER RESEARCH ROYAL CANCER HOSPITAL, priority 2023, published 2026).
Entries after “also recorded” stand apart in the source; their conditions may differ. For at least one compound, name, drawing or mass did not settle the structure.

System: BRCA1-Mut SUM149 cells
Test: Cell viability (CellTiter-Glo) after ADAR1 siRNA with exposure to ruxolitinib
Format: cell-based
Details: continuous exposure for 6 days

In the case of `N#CC[C@H](C1CCCC1)n1cc(-c2ncnc3[nH]ccc23)cn1` [ruxolitinib], the “effect on synthetic lethal effects of ADAR1 siRNA silencing (cell viability)” value is reported as “completely abrogated the synthetic lethal effects; also recorded: complete rescue”.
